Test results from the supplement of paper PMC12578635.
± gives the standard deviation of the averaged measurements. The list shows a part of the results. Repeats are few or missing, and single values can be far off.

The compounds below were run on RAW 264.7 macrophages infected with S. aureus JE2-lux (assay: host macrophage viability (CellTiter-Fluor) relative to DMSO vehicle; higher = more viable host cells). Settings: 10 µM; treatment time 4 h; gentamicin 50 µg/ml.

Row | SMILES | host macrophage viability
1 | Cc1ccc(/C=C2/S/C(=N/c3ccc(O)cc3)NC2=O)o1 | 99.2 ± 14%
2 | Cc1[nH]c2nc(CNc3cccc(Cl)c3C)nn2c(=O)c1C | 107%
3 | Cc1nn(-c2ccccc2)c2ncc(C(=O)NCCC(C)C)c(NCc3ccc(Cl)cc3)c12 | 98.3%
4 | O=C(CCCCn1c(=O)[nH]c2ccsc2c1=O)NCC1CCCO1 (stereo not drawn) | 110%
5 | Cc1sc2ncnc(SCC(=O)Nc3sc(-c4ccccc4)cc3C(N)=O)c2c1C | 107%
6 | Cc1n[nH]c2c1C(C(=O)c1cccc(Cl)c1)CC(=O)N2 (stereo not drawn) | 105%
7 | COc1ccc(C(=O)C2CCN(CC(=O)Nc3ccccc3F)CC2)cc1 | 107%
8 | Cc1n[nH]c2c1C(C(=O)c1ccc3c(c1)OCCO3)CC(=O)N2 (stereo not drawn) | 121%
9 | Cc1cc2c(cc1C)NC(CC(=O)Nc1ccccc1[N+](=O)[O-])C(=O)N2 (stereo not drawn) | 95.2%
10 | Cc1ccc(NC(=O)N2CCCC2C(=O)Nc2ccccc2Cl)cc1 (stereo not drawn) | 106%
11 | COc1ccc(Nc2cc(C)nc(-n3cc([N+](=O)[O-])cn3)n2)cc1Cl | 118%
12 | O=C(CN1N=NC2C(=O)N(c3ccc(Br)cc3)C(=O)C21)Nc1ccccc1[N+](=O)[O-] (stereo not drawn) | 119%
13 | CCn1c(SCc2nnc(-c3ccc(OC)c(OC)c3)o2)nc2ccccc2c1=O | 102%
14 | Cc1ccc(C(=O)Nc2nc(-c3ccc(C)s3)ns2)cc1 | 109%
15 | CCN1CCN(c2nc3ncn(CC(=O)Nc4ccc(F)c(C)c4)c(=O)c3s2)CC1 | 89.6%
16 | COC(=O)c1ccc(C(=O)NC(=S)Nc2nc3c(s2)CCc2ccccc2-3)cc1 | 118 ± 20%
17 | O=C(Nc1cccc(Cl)c1)c1cc(-c2ccc3c(c2)OCCO3)on1 | 107%
18 | COc1ccc(NC(=S)N2CCC(n3c(C)nc4cc(F)ccc43)CC2)cc1 | 85.8%
19 | CCc1cc2cc(C)ccc2nc1SCC(=O)NNC(=O)c1ccc(OC)cc1 | 119%
20 | Cc1nc2ccc(C(=O)NC(c3ccccc3)c3cccnc3)cc2[nH]1 (stereo not drawn) | 104%
21 | CCOc1ccccc1-c1nc(Cn2nc(-c3ccc(OC)cc3)c3c(C)onc3c2=O)c(C)o1 | 90.3%
22 | COc1cccc2sc(NNC(=O)c3cc(-c4cccs4)nc4ccccc34)nc12 | 126 ± 7.5%
23 | CC(=O)Nc1ccc(S(=O)(=O)Nc2ccc(O)c3ccccc23)cc1 | 124%
24 | CC(=O)Cc1nsc(NC(=O)c2cc(-c3ccc(Cl)cc3Cl)oc2C)n1 | 126%
25 | Cc1cc(C)c2nc(NC(=O)c3cccc(C(F)(F)F)c3)sc2c1 | 117%
26 | COc1ccc(-c2nc(OC)c3c4c(sc3n2)CCCC4)cc1 | 118%

Row | SMILES | host macrophage viability
27 | COc1cc2ccccc2cc1C(=O)Nc1ccc2c(c1)C(=O)N(C)C2=O | 104%
28 | Cc1oc2c(O)c(O)ccc2c(=O)c1-c1ccccc1 | 116%
29 | COc1cc(/C=N/n2c(C)cc(C)c(C#N)c2=O)ccc1OC(C)=O | 95.8%
30 | Cc1cc(O)nc(SCc2cn3cccnc3n2)n1 | 101%
31 | Cc1oc(-c2ccc(F)cc2)nc1C(=O)NC(c1ccccc1)c1cccnc1 (stereo not drawn) | 107%
32 | COc1ccc(OC)c2[nH]c(=O)c(CCNC(=O)c3cc4ccccc4oc3=O)cc12 | 112%
33 | COc1ccccc1CCNC(=N)NS(=O)(=O)c1ccc(F)cc1 | 114%
34 | CC(C)Cn1c(=O)c2ccc(C(=O)NC3CCCC3)cc2n2c(=S)[nH]nc12 | 124%
35 | CCOC(=O)c1ccccc1NC(=O)CSc1ncnc2c1nnn2-c1ccc(C)cc1 | 112 ± 4.5%
36 | CN(C)S(=O)(=O)c1ccc2nc(NC(=O)C(c3ccccc3)c3ccccc3)sc2c1 | 119%
37 | O=C(CN(C(=O)Cn1nnc2ccccc21)c1ccccc1)NCC1CCCO1 (stereo not drawn) | 112%
38 | Cc1cc(C)c(C#N)c(SCC(=O)Nc2cccc3cccnc23)n1 | 117%
39 | CCOC(=O)N1CCN(C(=O)CSc2ccnc3c2c(=O)n(C)c(=O)n3C)CC1 | 98%
40 | CSc1ccc(CNC(=O)c2nccn2Cc2ccccc2C)cc1 | 106%
41 | COc1ccc(CNC(=O)CSc2nc3[nH]ncc3c(=O)n2-c2ccccc2)cc1 | 116 ± 18%
42 | CC1CN(C(c2cccs2)c2sc3ncnn3c2O)CC(C)O1 (stereo not drawn) | 100%
43 | Cc1cc(C)n2nc(C(=O)NC(c3ccccc3)c3cccnc3)c(Cl)c2n1 (stereo not drawn) | 119%
44 | COc1ccc(C)cc1NC(=O)C1CCCN(C(=O)Nc2ccc(F)cc2)C1 (stereo not drawn) | 101%
45 | COc1ccc(S(=O)(=O)NC(=N)NCCc2ccc(Cl)cc2)cc1OC | 119%
46 | O=C(NCc1ccc(F)cc1)C1CCN(c2nc(-c3ccccc3)no2)CC1 | 114%
47 | CCCCNC(=O)c1cc(-c2ccc(OC)cc2)nc2n[nH]c(-c3ccc(OC)cc3)c12 | 120%
48 | Cc1ccc(N/C=C(\C#N)c2nc(-c3ccc([N+](=O)[O-])cc3)cs2)cc1Cl | 118 ± 16%
49 | O=C(CS(=O)(=O)c1ccccc1)Nc1ccc2c(c1)C(=O)NC2=O | 122%
50 | O=C(CCn1cnc2ccccc2c1=O)NC1CCC(=O)NC1c1ccc(F)cc1 (stereo not drawn) | 115%
51 | Cc1ccc2onc(CNC(=O)N3CCCC3)c2c1 | 131%
52 | O=C(OC1CCCCC1)c1cc2cc([N+](=O)[O-])ccc2oc1=O | 119%

Row | SMILES | host macrophage viability
53 | O=C(c1ccc(COc2ccc(F)cc2)o1)n1cccn1 | 119%
54 | CCn1c(=O)c(C)nc2cc(-c3noc(C(NS(=O)(=O)c4ccc(C)cc4)C(C)C)n3)ccc21 (stereo not drawn) | 126%
55 | O=C(O)c1cnc(N2CCC(N3CCCCC3)CC2)c(NS(=O)(=O)c2ccccc2)c1 | 113%
56 | CC(=O)N1c2ccc(NC(=O)C3(C)CC(=O)N=C4C=C(C)C=CN43)cc2CC1C (stereo not drawn) | 113%
57 | COc1cc(-c2nc(=O)[nH]c3ccc(Cl)cc23)cc(OC)c1OC | 124.3 ± 0.71%
58 | O=C1CC(c2ccccc2OC2CCCC2)c2cnn(-c3nc4ccccc4s3)c2N1 (stereo not drawn) | 135%
59 | CC1CCCCN1S(=O)(=O)c1ccc(C(=O)Nc2sc3c(c2C#N)CCC3)cc1 (stereo not drawn) | 139%
60 | O=C(CSCc1nc(O)c2nnn(Cc3ccc(F)cc3)c2n1)Nc1ccc2c(c1)OCCO2 | 98.3%
61 | Cc1ccc(S(=O)(=O)n2nc(OC(=O)c3ccc(Cl)cc3Cl)cc2N)cc1 | 108%
62 | COc1ccc(-c2cc(C(=O)NCC(c3ccccc3Cl)N(C)C)no2)cc1 (stereo not drawn) | 136%
63 | CCc1cc(=O)[nH]c(Nc2ccc(C)c(Cl)c2)n1 | 120%
64 | CCOc1ccc(NC(=O)c2cnn3c(=O)c(C)c(C)[nH]c23)cc1 | 120%
65 | O=C(NCc1ccccc1Cl)C(=O)NCC(c1ccco1)S(=O)(=O)c1ccccc1 (stereo not drawn) | 125%
66 | Cc1ccc(NC(=O)N2CCCC2C(=O)Nc2cccnc2)cc1 (stereo not drawn) | 117%
67 | Cc1ccc2[nH]c3nc(SCC(=O)Nc4cccc(O)c4)nnc3c2c1 | 104%
68 | COc1ccc(CCNc2ncnc3c2c(-c2ccccc2)cn3-c2ccccc2C)cc1 | 102%
69 | CC(C)Sc1nc2c(c(=O)[nH]1)C(c1ccc(Br)cc1)C1=C(CCCC1=O)N2 (stereo not drawn) | 142%
70 | Nc1cc(O)nc(SCc2ccc(C(=O)c3ccccc3)cc2)n1 | 113%
71 | CCOC(=O)c1cc(C#N)c(SCC(=O)Nc2ccc(C(C)=O)cc2)nc1O | 106%
72 | COc1ccc(NC(=O)CSc2nc(-c3ccccc3)c3ccccc3n2)c(OC)c1 | 110%
73 | COC(=O)c1ccc2c(=O)[nH]c3c(C(=O)N4CCOCC4)sc(=S)n3c2c1 | 121%
74 | COCCNC(=O)c1c(O)nc2sccn2c1=O | 126%
75 | O=C(CN1C(=O)/C(=C/c2cccc(Cl)c2)SC1=S)Nc1ccc2oc(=O)ccc2c1 | 128%
76 | COc1ccc2oc(=O)c(C(=O)Oc3ccc(C(C)=O)cc3OC)cc2c1 | 116%
77 | O=C(c1ccc2c(c1)OCO2)N1CCc2nc(-c3ccccc3)[nH]c(=O)c2C1 | 105%
78 | Cc1ccccc1OCCn1cnc2ccccc21 | 115%

Row | SMILES | host macrophage viability
79 | O=C(CSc1nc(-c2ccc(Cl)cc2)cs1)NNC(=O)c1ccco1 | 116%
80 | C#CCn1/c(=N/C(=O)c2cc(=O)c3ccccc3o2)sc2cc3c(cc21)OCCO3 | 141%
81 | COc1ccc(N2CCN(CCNc3ncnc4scc(-c5ccc(Cl)cc5)c34)CC2)cc1 | 124%
82 | CC(=O)c1cccc(NC(=O)c2csc3nc(-c4ccc(F)cc4)cn23)c1 | 107%
83 | COc1ccc(C2CC(=O)Nc3c2c(C)nn3-c2nc3ccccc3[nH]2)cc1Br (stereo not drawn) | 131%
84 | CS(=O)(=O)c1ccc(Sc2nc3ccccc3s2)c([N+](=O)[O-])c1 | 102%
85 | CSc1nc2ccc(NC(=O)Nc3cccc(Cl)c3)cc2s1 | 118%
86 | COc1cc(OC)c(NC(=O)c2sc3nc(C)nc(N4CCCC4)c3c2C)cc1Cl | 112%
87 | CN(C1CCCCC1)S(=O)(=O)c1ccc(C(=O)Nc2sccc2C(N)=O)cc1 | 119%
88 | O=C(NC1(CN2CCCC2)CCCCC1)C1OCOc2ccccc21 (stereo not drawn) | 114%
89 | CCC(C)NC(=O)c1ccc2c(=O)n(C)c3n[nH]c(=S)n3c2c1 (stereo not drawn) | 95.2%
90 | COc1ccc2cc(CCNC(=O)Cc3cccc4ccccc34)c(=O)[nH]c2c1 | 124%
91 | O=C(O)c1cc(-c2ccc(F)cc2)nc2ccccc12 | 111%
92 | COc1ccc(N2C(=O)NC3CC2(C)Oc2ccc([N+](=O)[O-])cc23)c(OC)c1 (stereo not drawn) | 109%
93 | CCc1ccc(NC(=O)Nc2ccccc2OCc2cc(=O)n3ccc(C)cc3n2)cc1 | 136%
94 | COc1ccc2[nH]c3nc(SCc4nc5ccccc5[nH]4)nnc3c2c1 | 114%
95 | Cc1ccc(C)c(N2CCN(S(=O)(=O)c3c(C)sc(C)c3-c3cc(C(F)(F)F)on3)CC2)c1 | 136%
96 | COc1ccc(C(=O)Nc2cccc(-c3ccc4nncn4n3)c2)c(OC)c1 | 116%
97 | CN(c1cncc(C(=O)NCc2cccnc2)c1)S(=O)(=O)c1ccccc1 | 111%
98 | O=C(CSc1nc2c(c(=O)[nH]1)CN(Cc1ccc(F)cc1)CC2)Nc1ccc(Cl)cc1 | 109%
99 | COC(=O)CCSc1ncnc2scc(-c3ccc(Cl)cc3)c12 | 117%
100 | NC(=O)C1Cc2ccccc2N1C(=O)CC(c1ccccc1)c1ccccc1 (stereo not drawn) | 105%
101 | CCOc1ccc(NCc2ccc(O)c3ncccc23)cc1 | 122%
102 | CCCCCNC(=O)c1cc(-c2ccc(Cl)cc2)nc2[nH]nc(-c3ccc(OC)cc3)c12 | 147%
103 | Cc1nc2c(C)cccc2cc1C(=O)NCCS(=O)(=O)NC1CCCCC1 | 133%

Random excerpt: four records from the list, in no set order.
Row | SMILES | host macrophage viability
89 | CCC(C)NC(=O)c1ccc2c(=O)n(C)c3n[nH]c(=S)n3c2c1 (stereo not drawn) | 95.2%
92 | COc1ccc(N2C(=O)NC3CC2(C)Oc2ccc([N+](=O)[O-])cc23)c(OC)c1 (stereo not drawn) | 109%
94 | COc1ccc2[nH]c3nc(SCc4nc5ccccc5[nH]4)nnc3c2c1 | 114%
100 | NC(=O)C1Cc2ccccc2N1C(=O)CC(c1ccccc1)c1ccccc1 (stereo not drawn) | 105%
